# Values of other authors as cited in patent US20230364016A1, “INTRACRANIAL DRUG DELIVERY MATERIALS AND METHODS” (Biotronik AG, priority 2017, published 2023).
# At least one structure is not confirmed: it was looked up by name or label, or the drawing left a doubt.
# Test system: malignant glioma
# Settings: malignant glioma model rats
smiles,measurement,setting,value
CO[C@H]1C[C@@H]2CC[C@@H](C)[C@@](O)(O2)C(=O)C(=O)N2CCCC[C@H]2C(=O)O[C@H]([C@H](C)C[C@@H]2CC[C@@H](O)[C@H](OC)C2)CC(=O)[C@H](C)/C=C(\C)[C@@H](O)[C@@H](OC)C(=O)[C@H](C)C[C@H](C)/C=C/C=C/C=C/1C [sirolimus],Survival time versus control animals,intracranial delivery from biodegradable polymer beads,significantly longer survival times
same,"Survival duration, radiation therapy plus simultaneous sirolimus versus either treatment alone",with radiation therapy,longer survival duration than either treatment alone
